Reference: PubChem BioAssay AID1259354 (Paczesny and Yang Labs, IUPUI and University of Michigan, 2018)
Several values for one entry are separate records, joined by “and”; a condition that tells them apart may be missing. Identical values can stand only once. The campaign covered roughly 78,000 compounds. About 1,800 (2.3%) were called active. Inconclusive results, whose numbers are uncertain, are shown with a selection of clear calls. Rule as the data show it: active = inhibition above about 30%; inconclusive = mostly about 10% to 28%; inactive = weaker than that.

Amino acid sequences for entries named in this document (tags omitted). A change or cut given only in a name is not applied to a line headed by its entry.
UniProt Q01638: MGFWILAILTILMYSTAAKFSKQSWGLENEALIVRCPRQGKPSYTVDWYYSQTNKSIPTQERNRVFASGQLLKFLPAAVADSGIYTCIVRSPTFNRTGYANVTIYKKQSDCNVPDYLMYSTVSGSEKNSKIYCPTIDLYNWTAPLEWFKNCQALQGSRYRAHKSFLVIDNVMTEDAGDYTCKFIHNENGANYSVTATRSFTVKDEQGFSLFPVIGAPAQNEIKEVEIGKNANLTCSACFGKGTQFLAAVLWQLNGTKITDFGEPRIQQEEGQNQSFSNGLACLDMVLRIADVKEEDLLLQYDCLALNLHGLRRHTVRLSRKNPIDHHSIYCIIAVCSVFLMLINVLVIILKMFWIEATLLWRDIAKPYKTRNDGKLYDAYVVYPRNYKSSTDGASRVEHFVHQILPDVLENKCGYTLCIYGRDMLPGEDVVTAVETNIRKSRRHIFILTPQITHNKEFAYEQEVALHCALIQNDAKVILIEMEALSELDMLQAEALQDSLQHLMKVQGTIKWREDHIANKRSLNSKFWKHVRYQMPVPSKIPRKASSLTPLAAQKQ

These compounds were tested against Interleukin-1 receptor-like 1 (Homo sapiens) (UniProt Q01638) (assay: blocks human ST2 binding to IL-33, primary screen, biochemical, AlphaLISA (AID 1259354)). Conditions: AlphaLISA ST2-Fc/biotin-IL-33 interaction, 1 h; at 17 µM, hits give high values.
In the case of O=C(N[C@@H]1CNCCC[C@H]1O)c1ccc(OCc2ccccc2)cc1, the inhibition is reported as inconclusive: 15%.
With COc1ccc(C2C(C#N)=C(N)N(c3ccccc3[N+](=O)[O-])C3=C2C(=O)CCC3)cc1 (stereo not drawn) the inhibition was inconclusive: 11%.
In the case of Cc1ccc(NC(=O)Cn2c([N+](=O)[O-])cnc2C)cc1Cl, the inhibition is reported as inconclusive: 18%.
For N#Cc1c(C(F)(F)F)cc(-c2ccccc2)nc1NCCO, the inhibition was inconclusive: 25%.
With Cc1cc(CNC(=O)c2ocnc2C)c2[nH]c(-c3ccccc3)c(C)c2c1 the inhibition was “inactive”.
With CCCc1[nH]nc2c1C(c1cc(Br)ccc1F)C(C#N)=C(N)O2 (stereo not drawn) the inhibition was “inactive”.
COc1ccc2c(=O)c(Oc3ccccc3)c(C)oc2c1OC was tested, and the inhibition was active: 30%.
Cc1nonc1CN(C)C(=O)c1cn(C/C=C/c2ccccc2)nn1 was tested, and the inhibition was inconclusive: 11%.
In the case of CN(Cc1nccn1Cc1ccccc1)C(=O)c1cc(C2CC2)[nH]n1, the inhibition is reported as “inactive”.
With O=C(c1cccc(-c2ncc[nH]2)c1)N1CCOC(c2ccc(Cl)cc2)C1 (stereo not drawn) the inhibition was inconclusive: 12%.
With Cc1ccccc1Cc1c(C)nc2c(C(=O)O)c[nH]n2c1=O the inhibition was inconclusive: 11%.
In the case of N#CC1=C(N)OC2=C(C(=O)CC(c3ccccc3)C2)C1c1ccc(F)c(F)c1 (stereo not drawn), the inhibition is reported as inconclusive: 13%.
Cc1ccccc1-c1ccccc1C(=O)N1CCC2(CN(C)C(=O)O2)C1 (stereo not drawn) was tested, and the inhibition was inconclusive: 15%.
For Cc1cc(CNc2ccc(-c3nc(-c4ccccc4F)no3)cn2)no1, the inhibition was inconclusive: 11%.
CCOC(=O)C1(CC2CC2)CCN(C(=O)c2cccc(-c3cccc(F)c3)c2)CC1 was tested, and the inhibition was inconclusive: 19%.
For Fc1ccc(CN2CCCCCC2)cc1F, the inhibition was inconclusive: 10%.
O=c1[nH]cnc2c1[nH]c1ccc(Br)cc12 was tested, and the inhibition was inconclusive: 20%.
O=C(CCN1C(=O)c2cccc([N+](=O)[O-])c2C1=O)Nc1ccc(Cl)cc1 was tested, and the inhibition was inconclusive: 20%.
In the case of O=C(CSc1nnc2c(n1)[nH]c1ccccc12)NCCc1ccccc1, the inhibition is reported as “inactive”.
With O=C(Nc1ccc2c(c1)OCO2)C1c2ccccc2C(=O)N2CCc3ccccc3C12 (stereo not drawn) the inhibition was “inactive”.
With O=[N+]([O-])c1ccc(N2CCN(c3ccc([N+](=O)[O-])c4cccnc34)CC2)cc1N1CCOCC1 the inhibition was inconclusive: 24%.
COc1ccc(CC(=O)N(C)c2ccccc2)cc1 was tested, and the inhibition was inconclusive: 11%.
C[C@@H]1O[C@@H](O[C@@H]2[C@@H](O)[C@H](OCCc3ccc(O)c(O)c3)O[C@H](CO[C@@H]3OC[C@](O)(CO)[C@H]3O)[C@H]2OC(=O)/C=C/c2ccc(O)c(O)c2)[C@H](O)[C@H](O)[C@H]1O was tested, and the inhibition was “inactive”.
NC(CC(=O)c1ccc(Cl)cc1Cl)C(Cl)(Cl)Cl (stereo not drawn) was tested, and the inhibition was inconclusive: 24%.
CC1(C)CC(=O)C2=C(C1)c1c(ccc3ncccc13)NC2c1ccc(Cl)cc1 (stereo not drawn) was tested, and the inhibition was “inactive”.
With CN(CC(=O)NCc1cccs1)S(=O)(=O)c1ccc2c(c1)CCC(=O)N2 the inhibition was “inactive”.
COc1cc(/C=C2\C(=O)Nc3ccc(Br)cc32)c(Cl)cc1O was tested, and the inhibition was inconclusive: 29%.
For C=C(C)CN(CC)Cc1ccc(-c2ccccc2[N+](=O)[O-])o1, the inhibition was active: 33%.
In the case of N#CSC(CS(=O)(=O)c1ccccc1)c1ccccc1 (stereo not drawn), the inhibition is reported as inconclusive: 15%.
With O=C(CCC(=O)N1CCOC2(CNCCOC2)C1)NC1CCCC1 (stereo not drawn) the inhibition was inconclusive: 14%.
For COC(=O)Nc1nc2ccc(-c3n[nH]c(=O)c4ccccc34)cc2[nH]1, the inhibition was inconclusive: 28%.
CNC(=O)c1cc2c(=O)n3cccc(C)c3nc2n(CCCn2ccnc2)c1=N was tested, and the inhibition was inconclusive: 21%.
In the case of COc1ccccc1C1C(C#N)=C(N)Oc2n[nH]c(C(C)(C)C)c21 (stereo not drawn), the inhibition is reported as “inactive”.
In the case of O=C(c1cccs1)N1CCN(c2ccc([N+](=O)[O-])c(N3CCOCC3)c2)CC1, the inhibition is reported as inconclusive: 23%.
COC(=O)c1ccc(-c2noc(CN(C)Cc3nc4ccc(Cl)cc4[nH]3)n2)cc1 was tested, and the inhibition was inconclusive: 10%.
In the case of Cc1ccc2[nH]c(C(=O)NCC3(Cn4ccnc4C)CC3)c(C)c2c1, the inhibition is reported as “inactive”.
For O=C(Nc1cccc(-c2nc3ncccc3o2)c1)c1ccc(OCc2ccccc2)cc1, the inhibition was active: 33%.
For O=C(Nc1nnc(C2CC2)o1)c1ccc(S(=O)(=O)N2CCOCC2)cc1, the inhibition was “inactive”.
For CN(Cc1cn[nH]c1-c1ccccc1)C(=O)c1cccc(C#CC(C)(C)O)c1, the inhibition was inconclusive: 13%.
In the case of COc1ccc(N(C(=O)c2ccc(F)cc2)C2C=CS(=O)(=O)C2)cc1 (stereo not drawn), the inhibition is reported as “inactive”.
With CC1=C[C@@H](CO)[C@H](C(C)C)C[C@H]1Cc1nnc(-c2ccc(N(C)C)cc2)o1 the inhibition was inconclusive: 13%.
With COc1ccc(CNC(=O)[C@@H](C)C2CC[C@@]3(C)CC[C@H](NC(=O)c4ccc(C#N)cc4)[C@@H](C)[C@@H]3[C@H]2O)cc1 (stereo partly drawn) the inhibition was inconclusive: 18%.
With Cc1ccc(-c2noc([C@@H]3C[C@H](NS(=O)(=O)c4ccc5ccccc5c4)CN3C)n2)cc1 the inhibition was inconclusive: 17%.
In the case of COc1ccc(NC(=O)[C@@H]2CC3c4ccccc4C2c2ccccc23)c(OC)c1, the inhibition is reported as “inactive”.
With O=c1cc(O)c2sc3nc(-c4cccs4)cc(-c4cccs4)c3c2[nH]1 the inhibition was inconclusive: 16%.
For O=C(Nc1ccc(Br)c2cccnc12)c1cccs1, the inhibition was “inactive”.
For O=S(=O)(c1ccccc1)N1c2ccccc2-c2ccccc2S1(=O)=O, the inhibition was “inactive”.
For O=C(Nc1ccccc1)N1Cc2[nH]cnc2C[C@H]1c1nc(-c2ccc3c(c2)OCO3)no1, the inhibition was inconclusive: 26%.
In the case of Cc1onc(-c2ccccc2)c1C(=O)N(C)C, the inhibition is reported as “inactive”.
In the case of Cn1c(=O)c2c(nc(NC3CCCCC3)n2Cc2cccc(Cl)c2)n(C)c1=O, the inhibition is reported as “inactive”.
For CN(Cc1cc(C(C)(C)C)n[nH]1)c1nc(-c2cccnc2)nc2c1CCNC2, the inhibition was inconclusive: 26%.
For COc1nc2c(cc1C(=O)Nc1cnc3n1CCCC3)C(=O)N(C1CCCC1)C2, the inhibition was inconclusive: 11%.
With O=C(CSC1=NS(=O)(=O)c2ccccc21)Nc1ccc(Br)cc1 the inhibition was inconclusive: 14%.
For C=CCc1c(C)nc2nc(SCC(=O)Nc3ccc(C)cc3)nn2c1C, the inhibition was “inactive”.
For C#CCOc1ccc(C=O)cc1Br, the inhibition was inconclusive: 13%.
With CO[C@H]1[C@H](NC(=O)c2ccco2)c2ccccc2C12CCN(Cc1cc3ccccc3s1)CC2 the inhibition was inconclusive: 12%.
With O=C(C1CC1)N1CCc2cc(Br)cc(S(=O)(=O)NC3CCCCCC3)c21 the inhibition was “inactive”.
With O=C1C2C(C(=O)N1c1ccccc1Br)[C@H]1C=C[C@@H]2CC1 (stereo partly drawn) the inhibition was inconclusive: 13%.
CCOC(=O)C1(Cc2cccc(OC)c2)CCN(C(C)CCn2cccn2)CC1 (stereo not drawn) was tested, and the inhibition was inconclusive: 12%.
With O=[N+]([O-])c1ccc2[nH]c3c(c2c1)CCCC3=NCc1ccccc1 the inhibition was inconclusive: 27%.
For CCN(CC)Cc1cnc2c(C(=O)N3CCc4sccc4C3)cnn2c1, the inhibition was inconclusive: 16%.
For O=C(CSc1ncnc2ccccc12)Nc1ccc2nsnc2c1, the inhibition was “inactive”.
With O=C(CN1CCN(Cc2ccccc2F)S1(=O)=O)Nc1ccc(F)c(Cl)c1 the inhibition was inconclusive: 14%.
In the case of CN(C)CCNC(=O)COc1ccc2c(c1)C(=O)CC(C)(C)O2, the inhibition is reported as inconclusive: 10%.
In the case of CCOC(=O)CNS(=O)(=O)c1cc(-c2nnc(Nc3ccccc3)c3ccccc23)ccc1C, the inhibition is reported as “inactive”.
For CCCn1cc(SCC(=O)Nc2nccs2)c2ccccc21, the inhibition was inconclusive: 10%.
For Cc1cc(NC(=O)c2cc3c(=O)n4ccccc4nc3s2)ccc1Br, the inhibition was “inactive”.
CC(C)c1nc(CNC(=O)c2coc(COc3ccccc3F)n2)cs1 was tested, and the inhibition was “inactive”.
In the case of N#Cc1nc(COc2ccc(Br)cc2)oc1NCCCn1ccnc1, the inhibition is reported as inconclusive: 25%.
CC(CC(=O)n1nnc2ccccc21)c1ccccc1 (stereo not drawn) was tested, and the inhibition was “inactive”.
With O=S(=O)(c1ccccc1)N1CCc2ccccc21 the inhibition was inconclusive: 20%.
In the case of CCOCCCNC(=O)c1ccc(CS(=O)(=O)c2c(Cl)cccc2Cl)o1, the inhibition is reported as inconclusive: 19%.
For Cc1c(Cl)cccc1-n1ncnc1-c1ccc(N(C)C)cc1, the inhibition was inconclusive: 21% and inconclusive: 16%.
COc1cc(C2CC(=O)Nc3ccc4ccccc4c32)cc(OC)c1O (stereo not drawn) was tested, and the inhibition was “inactive”.
CCC(C)NC(=O)c1ccc(CS(=O)(=O)c2ccc(OC)cc2)o1 (stereo not drawn) was tested, and the inhibition was inconclusive: 10%.
In the case of CC(NC(=O)Nc1cccc(Cl)c1)c1ccccc1 (stereo not drawn), the inhibition is reported as inconclusive: 12%.
For CC(C)OCCCNC(=O)c1cc2c(=O)n3ccccc3nc2n1C, the inhibition was “inactive”.
For COc1ccc(C(O)C(Nc2ccccc2)c2nc3ccccc3n2C)cc1 (stereo not drawn), the inhibition was inconclusive: 16%.
With Cc1[nH]c(=O)[nH]c(=O)c1S(=O)(=O)NCCOC12CC3CC(CC(C3)C1)C2 the inhibition was inconclusive: 10%.
With Cc1ccc(C(C)C)c(OCC(=O)Nc2ccc(C)cc2[N+](=O)[O-])c1 the inhibition was inconclusive: 17%.
N#Cc1nc(COc2ccccc2)oc1NCc1ccc(F)cc1 was tested, and the inhibition was active: 34%.
With O=C(NCCc1nc2ccccc2n1Cc1ccccc1F)c1cccs1 the inhibition was “inactive”.
COCC(=O)N1CC[C@H](c2nnc(C)o2)C1 was tested, and the inhibition was inconclusive: 12%.
With COc1ccc(NS(=O)(=O)c2c(C)n[nH]c2C)cc1Cl the inhibition was “inactive”.
With Cn1c(CC2CCNCC2)nnc1SCCN1CCOCC1 the inhibition was inconclusive: 21%.
With O=C(Nc1cccc(-c2nc3ccccc3o2)c1)c1cccc([N+](=O)[O-])c1 the inhibition was “inactive”.
For COc1ccc(CN2CCc3c([nH]c4ccccc34)C2)c(OC)c1OC, the inhibition was inconclusive: 16%.
In the case of CSCCC(NC(=O)C1CCC(C)CC1)C(=O)NCc1ccccn1 (stereo not drawn), the inhibition is reported as “inactive”.
With CCOC(=O)N1CCN(Cc2ccc(F)c(F)c2)CC1 the inhibition was “inactive”.
In the case of C=CCN(Cc1ccco1)Cc1ccc(-c2ccn[nH]2)o1, the inhibition is reported as “inactive”.
In the case of O=C(Nc1cccc(-c2csc(NCc3ccco3)n2)c1)c1ccccc1, the inhibition is reported as inconclusive: 12%.
For COc1cc(CN2CCN(C/C=C/c3ccccc3)CC2)cc(OC)c1O, the inhibition was inconclusive: 10%.
For COc1ccc(Cl)cc1NC(=O)CSc1nc2c([nH]c3ccccc32)c(=O)n1C, the inhibition was “inactive”.
